These results are taken from US20070036810A1, “Cyclic amp response element activator proteins and uses related thereto” (priority 2003, published 2007).

Amino acid sequences for entries named in this document (tags omitted).
UniProt P16220: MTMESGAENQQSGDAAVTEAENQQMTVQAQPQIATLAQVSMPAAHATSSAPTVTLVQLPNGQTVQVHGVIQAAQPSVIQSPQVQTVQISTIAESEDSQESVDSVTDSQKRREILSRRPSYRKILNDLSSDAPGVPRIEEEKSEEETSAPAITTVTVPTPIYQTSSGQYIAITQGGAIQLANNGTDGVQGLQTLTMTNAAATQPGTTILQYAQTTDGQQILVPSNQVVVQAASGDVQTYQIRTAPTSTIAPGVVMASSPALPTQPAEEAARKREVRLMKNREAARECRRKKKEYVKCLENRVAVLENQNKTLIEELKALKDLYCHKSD

No constants are given. Whether binding was seen depends on the method and setting. Binding seen in cells or lysates may run through a third protein. Some results given as binding are weak or reduced against the parent protein; the word gives no strength. Where a sequence is shown, tags or fusion partners need not be part of it.

The assay addresses endogenous CREB1 (cAMP Responsive Element Binding Protein 1) of HEK293 cells (UniProt P16220). In words: co-immunoprecipitation from transfected HEK293 cells (M2-agarose anti-FLAG beads), Western blot with anti-CREB antibody.

B1: K1 variant of CREAP1 (FLAG-tagged CREAP1 fragment, amino acids 1-170) (protein, not shown: small tags and cut ends)
chain: MATSNNPRKFSEKIALHNQKQAEETAAFEEVMKDLSLTRAARLQLQKSQYLQLGPSRGQYYGGSLPNVNQIGSGTMDLPFQPSGFLGEALAAAPVSLTPFQSSGLDTSRTTRHHGLVDRVYRERGRLGSPHRRPLSVDKHGRQADSCPYGTMYLSPPADTSWRRTNSDSA
For B1, the binding result is “binds”.
